The record followed here is paper PMC7273913.

This experiment deals with Human FANCL URD-RING (residues 109–375), wild type (human) (UniProt Q9NW38). The experiment can be described thus: SEC; Superdex 75 after MonoQ anion exchange (first peak); both purified. In general terms: SEC sorts molecules by how far they enter the pores of the column.

Results are given in words; binding and its absence hold for the method and conditions named.

B1: Human FANCL URD-RING (residues 109–375), wild type (domain or fragment, UniProt Q9NW38 109-375)
chain: QFYSSLIEEIGTLGWDKLVYADTCFSTIKLKAEDASGREHLITLKLKAKYPAESPDYFVDFPVPFCASWTPQSSLISIYSQFLAAIESLKAFWDVMDEIDEKTWVLEPEKPPRSATARRIALGNNVSINIEVDPRHPTMLPECFFLGADHVVKPLGIKLSRNIHLWDPENSVLQNLKDVLEIDFPARAILEKSDFTMDCGICYAYQLDGTIPDQVCDNSQCGQPFHQICLYEWLRGLLTSRQSFNIIFGECPYCSKPITLKMSGRKH
Turning to B1, the binding result is “no binding”.
